Results are given in words; binding and its absence hold for the method and conditions named. Binding seen in cells or lysates may run through a third protein. Here binding means that the protein was enriched with, or labelled near, the bait; the list need not be complete. Tags and fused reporters may be left off the sequences shown.

This assay deals with T1, FLAG-tagged SpoVK harboring a disrupted Walker B motif (SpoVK^B*-FLAG) (B. subtilis) (UniProt P27643).
T1 sequence: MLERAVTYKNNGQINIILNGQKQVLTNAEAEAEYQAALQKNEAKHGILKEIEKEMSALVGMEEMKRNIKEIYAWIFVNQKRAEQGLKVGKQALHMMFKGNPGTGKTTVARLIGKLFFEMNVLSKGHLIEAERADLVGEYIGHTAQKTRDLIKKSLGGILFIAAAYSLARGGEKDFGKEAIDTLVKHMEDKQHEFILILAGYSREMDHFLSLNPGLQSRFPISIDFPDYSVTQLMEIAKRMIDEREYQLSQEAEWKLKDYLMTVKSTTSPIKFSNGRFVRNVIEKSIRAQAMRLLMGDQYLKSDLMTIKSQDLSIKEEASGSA
The experiment in a line: affinity purification with mass spectrometry; anti-FLAG magnetic beads on extracts of B. subtilis 4 h after induction of sporulation (cells with SpoVID, or ΔspoVID cells); binding buffer 50 mM Tris-HCl pH 7.5, 150 mM NaCl, 7.5% glycerol, 0.2% Triton-X-100, 4 °C, 1 h; eluate on silver-stained SDS-PAGE, bands digested with trypsin and identified by mass spectrometry.

B1: SpoVID (protein, UniProt P37963 1-575)
chain: MPQNHRLQFSVEESICFQKGQEVSELLSISLDPDIRVQEVNDYVSIIGSLELTGEYNIDQNKHTEEIYTDKRFVEQVRKREDGSAELTHCFPVDITIPKNKVSHLQDVFVFIDAFDYQLTDSRILTIQADLAIEGLLDDTQDKEPEIPLYEAPAAFREEELSEPPAHSVVEEPGASSAEEAVLQHEPPAEPPELFISKAGLREELETEKAESEPPESVASEPEAREDVKEEEESEELAVPETEVRAESETEESEPEPDPSEIEIQEIVKAKKETAEPAAAIADVREEADSPAETELREHVGAEESPALEAELHSETVIAKEKEETTVSPNHEYALRQEAQNEEAAQSDQADPALCQEEAEPDEALESVSEAALSIEDSRETASAVYMENDNADLHFHFNQKTSSEEASQEELPEPAYRTFLPEQEEEDSFYSAPKLLEEEEQEEESFEIEVRKTPSAEEPKEETPFQSFQLPESSETERKETDAVPRVAPAAETKEPQTKESDNSLYLTKLFTKEADEFSRMKICIVQQEDTIERLCERYEITSQQLIRMNSLALDDELKAGQILYIPQYKNSHA
With B1, the binding entry is “binds”.

B2: MurG (enzyme, UniProt P37585 1-363)
chain: MRIAISGGGTGGHIYPALAFIKEVQRRHPNVEFLYIGTENGLEKKIVERENIPFRSIEITGFKRKLSFENVKTVMRFLKGVKKSKSYLAEFKPDAVIGTGGYVCGPVVYAAAKMGIPTIVHEQNSLPGITNKFLSKYVNKVAICFEEAKSHFPSEKVVFTGNPRASEVVSIKTGRSLAEFGLSEDKKTVLIFGGSRGAAPINRAVIDMQDVLKTRDYQVLYITGEVHYEKVMNELKSKGAADNMVTKPFLHQMPEYLKAIDVIVARAGATTIAEITALGIPSVLIPSPYVTANHQEVNARSLGQHDAAIVLKETELSGEKLIEALDRIVLNEQTLKEMSERTKSLGVPDAAARLYSVLEELKK
Consider B2, for which the binding entry was “binds”.
